Results: US20250136687A1
Residue numbers refer to the chain shown, from its start. No constants are given. Whether binding was seen depends on the method and setting. Binding can be weak; no strength is given.

B1: 7-35.6-H2-L3 humanized antibody (antibody, human IgG1, lambda, V domains shown)
VH: EVQLVESGGGLVQPGGSLKLSCAASGFTFNTYAMNWVRQASGKGLEWVGRIRSKINNYATYYGDSVKDRFTISRDDSKNTFYLQMNSLKTEDTAVYYCVIHENYGSISWFAYWGQGTLVTVSS
VL: ETVVTQEPSLTVSPGGTVTLTCRSSTGAVTTSNYANWVQQKPGQAFTGLIGGTNNRAPWTPARFSGSLLGGKAALTLSGVQPEDEAEYYCALWYSNHWVFGGGTKLTVLG
B2: 1-22.6-1-H2a-L2a humanized antibody (antibody, human IgG1, kappa, V domains shown)
VH: EVQLVQSGSELKKPGASVKVSCKTSGYTFTSYGMSWVRQAPGQGLEWMGWINTYSGVPTYAQDFKGRFVFSLDTSVSTAYLQISSLKAEDTAVYYCARLKNNPFVWGQGTTVTVSS
VL: DIVMTQSPDSLAVSLGERATINCRSSQLILHSSGNTYLEWYQQKPGQSPKLLIYKVSNRFSGVPDRFSGSGSGTDFTLTISSLQAEDVAVYYCFQGSHFPWTFGGGTKVEIKR
B3: 5-7.13-H1a-L2 humanized antibody (antibody, human IgG1, kappa, V domains shown)
VH: EVQLVQSGAEVKKPGASVKVSCKASGYTFTSYWVHWVRQAPGQRLEWMGNINPSDGVTNYNEKFKSRVTITVDKSASTAYMELSSLRSEDTAVYYCTRDAYGQYYFDNWGQGTTVTVSS
VL: DIVMTQTPLSLPVTPGEPASISCKSSQSLLNSRTRKNYLAWYLQKPGQSPQLLIYWASVRDSGVPDRFSGSGSGTDFTLKISRVEAEDVGVYYCIQSYYLRTFGGGTKVEIKR
B4: 5-40.21-H3-L1 humanized antibody (antibody, human IgG1, kappa, V domains shown)
VH: EVQLVQSGAEVKKPGASVKVSCKASGYTFTSYWMHWVRQAPGQGLEWMGNTYPGSGSTNYDEKFKSRVTITVDSSASTAYMELSSLRSEDTAVYYCTRDRYGVYYFDYWGQGTTVTVSS
VL: DIVMTQSPDSLAVSLGERATINCKSSQSLLNSRTRKNYLAWYQQKPGQSPKLLIYWASTRESGVPDRFSGSGSGTDFTLTISSLQAEDVAVYYCTQSYNLRTFGGGTKVEIKR
B5: 6-35.22-H1-L1 humanized antibody (antibody, human IgG1, kappa, V domains shown)
VH: EVQLVESGGGVVQPGRSLRLSCAASGFTFTDYYMSWVRQAPGKGLEWVAMSRNKAKGHTIEYSSSVKGRFTISRDNSKNTLYLQMNSLRAEDTAVYYCARDTYESYDGYFDVWGQGTTVTVSS
VL: B4 VL with L30F, T34S, S49T, T59I, T95K, N99Y, R101Y, G105Q, V109L
B6: 6-44.5-H1-L2 humanized antibody (antibody, human IgG1, kappa, V domains shown)
VH: EVQLVQSGAEVKKPGSSVKVSCKASGHTFSSHIMHWVRQAPGQGLEWMGYINPNNDRTEYSEKFKGRVTITADKSTSTAYMELSSLRSEDTAVYYCAGEAYYSNSLYAMDYWGQGTTVTVSS
VL: B4 VL with L30F, T95K, N99Y
B7: 8-18.1-H1-L2 humanized antibody (antibody, human IgG1, kappa, V domains shown)
VH: EVQLVQSGAEVKKPGASVKVSCKASGYTFTMNTMHWVRQAPGQRLEWMGYINPYSGYTKYNQIFKDRVTITADKSASTAYMELSSLRSEDTAVYYCLRGGEGVWGQGTTVTVSS
VL: DVVMTQSPLSLPVTLGQPASISCKSSQSLLDSDGKTYLNWLQQRPGQSPRRLIYLVSELGSGVPDRFSGSGSGTDFTLKISRVEAEDVGVYYCWQGTHFPRTFGGGTKVEIKR

The binders below were run against human CD3ε/δ-His (human) (assay: ELISA, coated antigen).

| binding | Binder |
| --- | --- |
| binds | B1 |
| binds | B2 |
| binds | B3 |
| binds | B4 |
| binds | B5 |
| binds | B6 |
| binds | B7 |

The binders below were run against monkey CD3ε/δ-His (monkey) (assay: ELISA, coated antigen).

| binding | Binder |
| --- | --- |
| binds | B1 |
| binds | B2 |
| binds | B3 |
| binds | B4 |
| binds | B6 |
| binds | B7 |
